Data source: PubChem BioAssay AID686937 (Drosophila RNAi Screening Center, 2013)

- Test: 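Knock-downs that reduce output of a secreted reporter enzyme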 (primary screen)
- Cell system: Drosophila S2 cells expressing secreted horseradish peroxidase
- Knock-down reagent: long dsRNA against Drosophila genes
- Time to read-out: about 5.5 days (5 days dsRNA, then 12 h reporter induction)
- Conditions: reporter expression induced after 5 days of dsRNA, read 12 h later; inducer not stated
- Measurement: 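Chemiluminescent measurement of peroxidase in the medium 12 h after reporter induction, following 5 days of dsRNA, given as a z-score per plate; higher means more secretion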
- Reading the numbers: z-score: higher = more reporter secreted into medium
In all, the deposit lists about 23,000 reagents; this is a random part of those that have a named target and a result. 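Reduced-secretion tags in replicate 1 do not always agree with the z-scores; no criterion for assigning the tags was given.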 The numbers tell different reagents against one gene apart. A plus sign joins genes that one reagent is predicted to hit. Not stated in the record: the amount of reagent.

target gene,reagent no.,"z-score, replicate 1","z-score, replicate 2","z-score, replicate 3","z-score, replicate 4","phenotype, replicate 1"
Skp2 + CG14645,1,0.05,0,,,
brun,1,0.04,0.31,,,
CG4631,1,0.12,0.02,0.44,0.11,
CG4631,2,0.51,0.19,,,
CG34221,1,-0.42,-0.12,,,
CG12206,1,-0.04,-0.66,,,
Xe7,1,0.47,-0.18,,,
CG12746,1,0.28,0.41,,,
boca,1,0.37,0.44,,,
CG42245 + MEP-1,1,0.75,0.32,,,
CG42245 + MEP-1,2,0.26,0.28,,,
CG42245 + MEP-1,3,-0.62,0.36,,,
CycB,1,0.27,0.32,,,
PGAP5,1,0.54,0.26,,,
CG12917,1,0.25,0.06,,,
beat-IIIa,1,0.32,-0.36,,,
beat-IIIa,2,-0.12,0.22,,,
beat-IIIa,3,0.24,0.37,,,
CG13842,1,0.38,0.34,,,
Gat,1,0.3,0.21,,,
lncRNA:CR42859,1,-0.39,0.03,,,
CG32106,1,0.41,0.41,,,
ItgaPS5,1,0.01,0.3,,,
Spindly,1,-0.91,-0.63,,,
uno,1,0.4,0.46,,,
Ccs,1,0.46,0.44,,,
RhoBTB,1,0.16,0.24,,,
CG12682,1,0.02,0.08,,,
Rala,1,0.28,0,,,
se,1,0.38,0.38,,,
CR42785,1,0.39,,,,
msn,1,0.08,0.25,,,
msn,2,0.08,0.2,,,
CG42237,1,0.48,0.61,,,
Pp4-19C,1,-0.57,0.11,,,
Pp4-19C,2,-0.78,-0.04,,,
CG8785,1,0.46,0.43,,,
l(1)G0004,1,0.12,0.09,,,
CG17985,1,0.07,0.26,,,
Sec24CD,1,-0.48,-0.96,,,
Hasp,1,0.25,0.23,,,
CG14797 + CG32809,1,0.24,0.29,,,
Ser12,1,0.19,0.16,,,
Mink,1,0.24,0.32,,,
CG5026,1,0.11,0.13,,,
fax,1,-0.68,-1.11,,,
idc,1,0.39,0.26,,,
CG5111,1,0.35,0.22,,,
tral,1,-1.62,-1.32,,,reduced secretion
Dredd,1,0.05,0.07,,,
CG6865,1,0.2,-0.1,,,
Ube3a,1,0.03,0.36,,,
GILT1,1,0.16,0.32,,,
Frq1,1,0.15,0.5,,,
COX7C,1,-0.12,0.02,-0.07,-0.14,
CG42714,1,-0.04,-0.49,,,
Agpat1,1,0.26,0.69,,,
Agpat1,2,0.18,0.29,,,
CG13455,1,0.09,0.17,,,
Atg8a,1,0.34,0.65,,,
CASK,1,0.17,0.35,0.51,-0.02,
CASK,2,0.32,-0.56,,,
CASK,3,0.29,0.37,,,
CASK,4,0.66,0.02,,,
Bsg,1,-1.41,-0.07,,,
Bsg,2,-0.63,-0.41,,,
CG13069,1,0.45,0.25,,,
RyR,1,0.13,0,,,
Eig71Eb,1,0.38,0.4,,,
Alg10,1,0.47,0.43,,,
Pgant1,1,0.36,-0.01,,,
CG10214,1,0.31,0.27,,,
BomT2,1,0.4,0.18,,,
Zip89B,1,0.41,0.48,,,
CG6294 + CG6299 + CG15642,1,0.36,0.51,,,
Acbp2,1,0.35,0.53,,,
serp,1,0.27,0.41,,,
serp,2,0.34,0.42,,,
Mnt,1,-0.31,-0.43,,,
Mnt,2,0.37,0.28,,,
CG5084,1,-0.03,-0.07,,,
Cpr65Av,1,0.37,0.26,,,
Cox17,1,0.33,0.13,,,
CG32147,1,0.17,0.19,,,
Try29F,1,0.68,0.35,,,
CG6034,1,0.28,0.21,,,
DIP-eta,1,-7.69,0.08,,,reduced secretion
yellow-d2,1,0.27,0.49,,,
CG6931,1,0.21,0.38,,,
PsGEF,1,0.27,0.22,,,
PsGEF,2,0.2,0.24,,,
PsGEF,3,0.41,-6.32,,,
CG10345,1,0.35,0.34,,,
CG5850,1,0.56,0.35,,,
CG14400,1,0.24,0.3,,,
c12.1,1,-1.04,-0.33,,,
dare + CG30033,1,0.31,-0.31,,,
CG34263,1,0.28,0.2,,,
CG17154,1,0.31,0.12,,,
CG8300,1,-0.29,-0.32,,,
CheB38c,1,0.44,0.29,,,
CG17376,1,-0.14,0.15,,,
CG14316,1,0.26,0.39,,,
Cyp6a18,1,0.23,0.28,,,

Copied from the listing (7 entries):
target gene,reagent no.,"z-score, replicate 1","z-score, replicate 2","z-score, replicate 3","z-score, replicate 4","phenotype, replicate 1"
CASK,4,0.66,0.02,,,
Bsg,1,-1.41,-0.07,,,
Bsg,2,-0.63,-0.41,,,
CG13069,1,0.45,0.25,,,
RyR,1,0.13,0,,,
Eig71Eb,1,0.38,0.4,,,
Alg10,1,0.47,0.43,,,
